Data as given in article PMC7236970 (Clinical Epigenetics, 2020).

Key:
Acetyl histone H4 = assay: Western blot of histone H4 acetylation in K-562 cells; assay type: cell-based; settings: Homo sapiens, K562, 24 h, western blot quantification, read-out: EC50 half-maximal acetylation of histone H4
Protocol: (§1) Cells were lyzed in 10% (v/v) Mammalian Protein Extraction Reagent solution (MPER®; Thermofisher, Erembodegen, Belgium) supplemented with 1× protease inhibitor cocktail (Complete EDTA-free, Roche) according to the manufacturer’s instructions. Histone enrichment was performed in acidic conditions as previously described. The protein concentration was determined using the Bradford assay (BioRad).

Acetyl α-tubulin = assay: Western blot of α-tubulin acetylation in K-562 cells; assay type: cell-based; settings: Homo sapiens, K562, 24 h, western blot quantification, read-out: EC50 half-maximal acetylation of α-tubulin
Protocol: as §1

`O=C(CCCCCCC(=O)Nc1ccccc1)NO` [SAHA, suberoylanilide hydroxamic acid, reference compound] was tested, and the EC50 (Acetyl histone H4) was 2.6 ± 0.2 µM and the EC50 (Acetyl α-tubulin) was 1.9 ± 0.8 µM.
